Experimental data reported in article doi:10.1101/2020.01.09.899237.
Results are given in words; binding and its absence hold for the method and conditions named.

By UniProt entry, the sequences of proteins in these tests, tags left out. Residues count along the entry.
UniProt Q8NHS0, residues 1-77: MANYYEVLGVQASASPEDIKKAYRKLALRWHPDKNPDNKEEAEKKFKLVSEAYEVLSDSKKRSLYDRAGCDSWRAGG

Key:
[1] = molecular target: DnaJB8 J-domain JD_(1-77) (human) (UniProt Q8NHS0); test: cross-linking
[2] = molecular target: DnaJB8 J-domain JD_(1-77) (human) (UniProt Q8NHS0); test: SEC-MALS

binding [1]: no binding (tested: 100μM) | binding [2]: no binding (tested: 5.0 mg/mL)
Substance: DnaJB8 J-domain JD_(1-77) (from UniProt Q8NHS0 1-77) (domain or fragment)
